Measured values taken from ChEMBL document CHEMBL4316593 (Eur J Med Chem, 2019).
Further values from the same series stand in other lists.

Legend:
Format in all cases: cell-based
Settings in all cases: U-87MG ATCC
[1] = Inhibition of RTK/PI3K/AKT/mTOR signaling in human U87 cells assessed as down regulation of RASD1 gene expression at cytotoxic IC50 measured after 48 hrs relative to control
[2] = Inhibition of RTK/PI3K/AKT/mTOR signaling in human U87 cells assessed as down regulation of TIPARP gene expression at cytotoxic IC50 measured after 48 hrs relative to control
[3] = Inhibition of RTK/PI3K/AKT/mTOR signaling in human U87 cells assessed as down regulation of SNHG12 gene expression at cytotoxic IC50 measured after 48 hrs relative to control
[4] = Inhibition of RTK/PI3K/AKT/mTOR signaling in human U87 cells assessed as down regulation of PHLDB3 gene expression at cytotoxic IC50 measured after 48 hrs relative to control
[5] = Inhibition of RTK/PI3K/AKT/mTOR signaling in human U87 cells assessed as down regulation of SLC35D1 gene expression at cytotoxic IC50 measured after 48 hrs relative to control
[6] = Inhibition of RTK/PI3K/AKT/mTOR signaling in human U87 cells assessed as down regulation of GDAP2 gene expression at cytotoxic IC50 measured after 48 hrs relative to control
[7] = Inhibition of RTK/PI3K/AKT/mTOR signaling in human U87 cells assessed as down regulation of BRD7 gene expression at cytotoxic IC50 measured after 48 hrs relative to control
[8] = Inhibition of RTK/PI3K/AKT/mTOR signaling in human U87 cells assessed as down regulation of PMM1 gene expression at cytotoxic IC50 measured after 48 hrs relative to control
[9] = Inhibition of RTK/PI3K/AKT/mTOR signaling in human U87 cells assessed as down regulation of EXOC6B gene expression at cytotoxic IC50 measured after 48 hrs relative to control
[10] = Inhibition of RTK/PI3K/AKT/mTOR signaling in human U87 cells assessed as down regulation of VTA1 gene expression at cytotoxic IC50 measured after 48 hrs relative to control
[11] = Inhibition of RTK/PI3K/AKT/mTOR signaling in human U87 cells assessed as down regulation of MED8 gene expression at cytotoxic IC50 measured after 48 hrs relative to control
[12] = Inhibition of RTK/PI3K/AKT/mTOR signaling in human U87 cells assessed as down regulation of TMEM127 gene expression at cytotoxic IC50 measured after 48 hrs relative to control
[13] = Inhibition of RTK/PI3K/AKT/mTOR signaling in human U87 cells assessed as down regulation of SUPT7L gene expression at cytotoxic IC50 measured after 48 hrs relative to control
[14] = Inhibition of RTK/PI3K/AKT/mTOR signaling in human U87 cells assessed as down regulation of ZNF451 gene expression at cytotoxic IC50 measured after 48 hrs relative to control
[15] = Inhibition of RTK/PI3K/AKT/mTOR signaling in human U87 cells assessed as up regulation of CDH15 gene expression at cytotoxic IC50 measured after 48 hrs relative to control
[16] = Inhibition of RTK/PI3K/AKT/mTOR signaling in human U87 cells assessed as up regulation of AGER gene expression at cytotoxic IC50 measured after 48 hrs relative to control
[17] = Inhibition of RTK/PI3K/AKT/mTOR signaling in human U87 cells assessed as up regulation of ARHGAP18 gene expression at cytotoxic IC50 measured after 48 hrs relative to control
[18] = Inhibition of RTK/PI3K/AKT/mTOR signaling in human U87 cells assessed as up regulation of nuclear factor I B gene expression at cytotoxic IC50 measured after 48 hrs relative to control
[19] = Inhibition of RTK/PI3K/AKT/mTOR signaling in human U87 cells assessed as up regulation of MAPK regulated corepressor interacting protein 2 gene expression at cytotoxic IC50 measured after 48 hrs relative to control
[20] = Inhibition of RTK/PI3K/AKT/mTOR signaling in human U87 cells assessed as up regulation of related RAS viral (r-ras) oncogene homolog gene expression at cytotoxic IC50 measured after 48 hrs relative to control
[21] = Inhibition of RTK/PI3K/AKT/mTOR signaling in human U87 cells assessed as up regulation of calreticulin gene expression at cytotoxic IC50 measured after 48 hrs relative to control
[22] = Inhibition of RTK/PI3K/AKT/mTOR signaling in human U87 cells assessed as up regulation of pleckstrin homology domain containing A4 gene expression at cytotoxic IC50 measured after 48 hrs relative to control
[23] = Inhibition of RTK/PI3K/AKT/mTOR signaling in human U87 cells assessed as up regulation of TATA-box binding protein associated factor 4b gene expression at cytotoxic IC50 measured after 48 hrs relative to control
[24] = Inhibition of RTK/PI3K/AKT/mTOR signaling in human U87 cells assessed as up regulation of BAI1 associated protein 2 like 1 gene expression at cytotoxic IC50 measured after 48 hrs relative to control
[25] = Inhibition of RTK/PI3K/AKT/mTOR signaling in human U87 cells assessed as up regulation of extended synaptotagmin 2 gene expression at cytotoxic IC50 measured after 48 hrs relative to control
[26] = Inhibition of RTK/PI3K/AKT/mTOR signaling in human U87 cells assessed as up regulation of prothymosin, alpha gene expression at cytotoxic IC50 measured after 48 hrs relative to control
[27] = Inhibition of RTK/PI3K/AKT/mTOR signaling in human U87 cells assessed as up regulation of solute carrier family 38 member 10 gene expression at cytotoxic IC50 measured after 48 hrs relative to control
[28] = Inhibition of RTK/PI3K/AKT/mTOR signaling in human U87 cells assessed as up regulation of SEC11A gene expression at cytotoxic IC50 measured after 48 hrs relative to control
[29] = Inhibition of RTK/PI3K/AKT/mTOR signaling in human U87 cells assessed as up regulation of CUEDC1 gene expression at cytotoxic IC50 measured after 48 hrs relative to control
[30] = Inhibition of RTK/PI3K/AKT/mTOR signaling in human U87 cells assessed as up regulation of MAN1A1 gene expression at cytotoxic IC50 measured after 48 hrs relative to control
[31] = Inhibition of RTK/PI3K/AKT/mTOR signaling in human U87 cells assessed as up regulation of FOXK1 gene expression at cytotoxic IC50 measured after 48 hrs relative to control
[32] = Inhibition of RTK/PI3K/AKT/mTOR signaling in human U87 cells assessed as up regulation of SUMF2 gene expression at cytotoxic IC50 measured after 48 hrs relative to control

## CC(=O)C(=NNc1ccccc1C#N)C(C)=O
[1]
  log2FC: -2.9
[2]
  log2FC: -1.77
[3]
  log2FC: -1.58
[4]
  log2FC: -1.37
[5]
  log2FC: -1.21
[6]
  log2FC: -1.05
[7]
  log2FC: -0.833
[8]
  log2FC: -0.732
[9]
  log2FC: -0.692
[10]
  log2FC: -0.687
[11]
  log2FC: -0.647
[12]
  log2FC: -0.558
[13]
  log2FC: -0.55
[14]
  log2FC: -0.543
[15]
  log2FC: 2.03
[16]
  log2FC: 1.94
[17]
  log2FC: 1.64
[18]
  log2FC: 1.55
[19]
  log2FC: 1.43
[20]
  log2FC: 1.42
[21]
  log2FC: 1.14
[22]
  log2FC: 1.01
[23]
  log2FC: 0.949
[24]
  log2FC: 0.739
[25]
  log2FC: 0.732
[26]
  log2FC: 0.732
[27]
  log2FC: 0.658
[28]
  log2FC: 0.591
[29]
  log2FC: 0.583
[30]
  log2FC: 0.546
[31]
  log2FC: 0.535
[32]
  log2FC: 0.47
